Data: US20210363262A1 (AIMED BIO, published 2021)
No constants are given. Whether binding was seen depends on the method and setting. Some results given as binding are weak or reduced against the parent protein; the word gives no strength.

Amino acid sequences for entries named in this document (tags omitted). Residues count along the entry.
UniProt P08581, residues 25-932: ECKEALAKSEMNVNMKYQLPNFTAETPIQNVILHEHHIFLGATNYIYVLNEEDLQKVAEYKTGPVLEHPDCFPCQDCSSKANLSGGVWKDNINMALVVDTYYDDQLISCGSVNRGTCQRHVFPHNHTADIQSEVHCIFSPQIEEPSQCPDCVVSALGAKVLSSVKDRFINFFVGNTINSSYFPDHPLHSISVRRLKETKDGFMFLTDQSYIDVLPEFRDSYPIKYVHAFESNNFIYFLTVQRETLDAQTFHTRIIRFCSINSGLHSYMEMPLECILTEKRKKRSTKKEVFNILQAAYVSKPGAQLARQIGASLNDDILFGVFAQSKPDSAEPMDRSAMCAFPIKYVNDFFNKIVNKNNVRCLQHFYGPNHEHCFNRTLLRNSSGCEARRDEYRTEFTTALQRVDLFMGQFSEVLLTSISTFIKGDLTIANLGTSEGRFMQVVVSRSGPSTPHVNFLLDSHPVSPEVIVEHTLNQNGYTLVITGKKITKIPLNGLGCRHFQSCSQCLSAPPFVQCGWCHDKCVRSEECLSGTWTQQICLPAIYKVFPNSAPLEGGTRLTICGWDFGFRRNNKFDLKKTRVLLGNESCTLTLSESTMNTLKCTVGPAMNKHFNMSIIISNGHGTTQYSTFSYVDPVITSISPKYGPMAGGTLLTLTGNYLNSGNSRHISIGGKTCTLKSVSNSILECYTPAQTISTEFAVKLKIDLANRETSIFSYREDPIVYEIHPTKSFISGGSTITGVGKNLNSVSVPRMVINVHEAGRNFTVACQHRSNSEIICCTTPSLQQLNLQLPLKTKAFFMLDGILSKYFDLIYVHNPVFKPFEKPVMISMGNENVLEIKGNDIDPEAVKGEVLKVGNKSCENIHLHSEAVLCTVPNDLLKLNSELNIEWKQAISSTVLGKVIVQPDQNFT

Tests used:
[1] = biological target: Recombinant human c-Met (Sino biological) (human) (UniProt P08581); experiment: ELISA, recombinant human c-Met coated at 50 ng/well, antibody titrated from 200 nM, anti-human Fab-HRP (parent as reference)
[2] = biological target: Recombinant human c-Met (Sino biological) (human) (UniProt P08581); experiment: ELISA, recombinant human c-Met coated at 50 ng/well, antibody titrated from 200 nM, anti-human Fab-HRP

Row | Binder | binding [1] | binding [2]
1 | 1F12 (parent antibody), full-length human IgG1 (antibody, V domains shown) VH: EVQLLESGGGLVQPGGSLRLSCAASGFTFSNYAMSWVRQAPGKGLEWVSGISYSGGSTYYADSVKGRFTISRDNSKNTLYLQMNSLRAEDTAVYYCAKASRSCQRPACSYANGMDVWGQGTLVTVSS VL: QSVLTQPPSASGTPGQRVTISCTGSSSNIGNNYVTWYQQLPGTAPKLLIYYNNHRPSGVPDRFSGSKSGTSASLAISGLQSEDEADYYCGSWDYSLSAYVFGGGTKLTVL | binds | 
2 | 1F12_H2L3, full-length human IgG1 (antibody, V domains shown) VH: EVQLLESGGGLVQPGGSLRLSCAASGFTFSNYAMSWVRQAPGKGLEWVSGISYDGGSTYYADSVKGRFTISRDNSKNTLYLQMNSLRAEDTAVYYCAKASRSCQRPACSYANGMDVWGQGTLVTVSS VL: QSVLTQPPSASGTPGQRVTISCTGSSSNIGNNYVTWYQQLPGTAPKLLIYENNHRPSGVPDRFSGSKSGTSASLAISGLQSEDEADYYCGSWDYSLSAYVFGGGTKLTVL |  | binds

Results, then the binder that gave them:

Row | binding [1] | binding [2] | Binder
3 |  | binds | 1F12_H2L6, full-length human IgG1 (antibody, V domains shown) VH: EVQLLESGGGLVQPGGSLRLSCAASGFTFSNYAMSWVRQAPGKGLEWVSGISYDGGSTYYADSVKGRFTISRDNSKNTLYLQMNSLRAEDTAVYYCAKASRSCQRPACSYANGMDVWGQGTLVTVSS VL: QSVLTQPPSASGTPGQRVTISCTGSSSNIGNNYVTWYQQLPGTAPKLLIYYNNHRPSGVPDRFSGSKSGTSASLAISGLQSEDEADYYCGSWDYSLSADVFGGGTKLTVL
4 |  | binds | 1F12_H3L5, full-length human IgG1 (antibody, V domains shown) VH: EVQLLESGGGLVQPGGSLRLSCAASGFTFSNYAMSWVRQAPGKGLEWVSGISYSGGSKYYADSVKGRFTISRDNSKNTLYLQMNSLRAEDTAVYYCAKASRSCQRPACSYANGMDVWGQGTLVTVSS VL: QSVLTQPPSASGTPGQRVTISCTGSSSNIGNNYVTWYQQLPGTAPKLLIYYNNHRPSGVPDRFSGSKSGTSASLAISGLQSEDEADYYCGSWDYSLRAYVFGGGTKLTVL
5 |  | binds | 1F12_H6L5, full-length human IgG1 (antibody, V domains shown) VH: EVQLLESGGGLVQPGGSLRLSCAASGFTFSNYAMSWVRQAPGKGLEWVSGISYSGGSTYYADSVKGRFTISRDNSKNTLYLQMNSLRAEDTAVYYCAKASRSCQRPACHYANGMDVWGQGTLVTVSS VL: QSVLTQPPSASGTPGQRVTISCTGSSSNIGNNYVTWYQQLPGTAPKLLIYYNNHRPSGVPDRFSGSKSGTSASLAISGLQSEDEADYYCGSWDYSLRAYVFGGGTKLTVL
